In PMC9474880:
No constants are given. Whether binding was seen depends on the method and setting. Binding seen in cells or lysates may run through a third protein. Some entries that bind do so weakly or less than the wild type.

By UniProt entry, the sequences of proteins in these tests, tags left out.
UniProt Q07820: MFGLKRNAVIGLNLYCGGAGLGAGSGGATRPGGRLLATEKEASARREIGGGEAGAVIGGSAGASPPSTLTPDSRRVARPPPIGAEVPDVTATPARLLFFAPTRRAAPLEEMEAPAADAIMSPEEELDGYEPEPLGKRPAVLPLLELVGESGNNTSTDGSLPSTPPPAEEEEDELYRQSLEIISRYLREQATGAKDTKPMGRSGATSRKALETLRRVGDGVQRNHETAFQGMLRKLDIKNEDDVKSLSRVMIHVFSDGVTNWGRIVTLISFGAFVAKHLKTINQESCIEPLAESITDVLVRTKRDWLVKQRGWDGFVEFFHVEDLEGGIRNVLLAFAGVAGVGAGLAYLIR
UniProt O00429: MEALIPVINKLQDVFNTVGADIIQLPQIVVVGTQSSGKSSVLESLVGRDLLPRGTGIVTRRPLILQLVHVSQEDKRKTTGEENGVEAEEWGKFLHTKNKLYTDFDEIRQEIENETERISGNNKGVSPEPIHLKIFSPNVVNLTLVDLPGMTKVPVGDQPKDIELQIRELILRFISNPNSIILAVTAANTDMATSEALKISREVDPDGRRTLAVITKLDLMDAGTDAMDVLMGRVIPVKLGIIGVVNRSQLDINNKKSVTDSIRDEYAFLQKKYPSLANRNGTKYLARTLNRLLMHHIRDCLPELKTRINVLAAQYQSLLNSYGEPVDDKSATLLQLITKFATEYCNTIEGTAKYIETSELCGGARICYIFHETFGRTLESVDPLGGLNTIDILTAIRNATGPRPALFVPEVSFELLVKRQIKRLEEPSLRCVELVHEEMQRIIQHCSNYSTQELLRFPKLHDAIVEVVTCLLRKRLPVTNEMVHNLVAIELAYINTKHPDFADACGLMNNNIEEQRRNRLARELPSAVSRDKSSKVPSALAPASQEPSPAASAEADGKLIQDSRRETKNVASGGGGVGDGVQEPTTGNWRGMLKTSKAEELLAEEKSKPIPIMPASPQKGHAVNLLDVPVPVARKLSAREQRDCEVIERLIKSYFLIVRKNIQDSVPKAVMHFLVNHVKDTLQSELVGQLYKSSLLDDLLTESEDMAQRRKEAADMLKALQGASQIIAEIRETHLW

Target: MCL-1 (human (endogenous in primary bCAFs)) (UniProt Q07820)
Assay: co-IP; endogenous MCL-1 immunoprecipitated (anti-MCL-1 antibody, Protein A magnetic beads) from 200 ug of CAF lysate in CHAPS 1%, TRIS-HCl 20 mM pH 7.5, NaCl 150 mM, EDTA 1 mM; western blot for MCL-1, DRP1 or NOXA; CAFs treated or not with S63845, in presence or not of Mdivi-1

binding: binds
Substance: dynamin-related protein 1 (DRP-1) (from UniProt O00429 1-736)
